Source: the supplement of paper PMC10077471
In all, about 1,900 compounds were measured (“excess over highest single agent (ExcessHSA) synergy score, 6x6 matrix”: median about -83, lowest 2% from about -370 on). The list shows a part of the results.

What follows are compounds tested on NCI-H446 (assay: excess over highest single agent (ExcessHSA) synergy score, 6x6 matrix; higher = less synergy (more negative = stronger synergy)). Conditions: 72 h; CellTiter-Glo viability.
With `CC1=NN=C(c2ccc(N)cc2)c2cc3c(cc2C1)OCO3` + Cc1sc2c(c1C)C(c1ccc(Cl)cc1)=N[C@@H](CC(=O)OC(C)(C)C)c1nnc(C)n1-2 [NCGC00250412-19] the “excess over highest single agent” value was -71.5. `Nc1ncnc2c1c(-c1cnc3[nH]ccc3c1)nn2C1CCCC1` + Cc1sc2c(c1C)C(c1ccc(Cl)cc1)=N[C@@H](CC(=O)OC(C)(C)C)c1nnc(C)n1-2 [NCGC00250412-19] was tested, and the “excess over highest single agent” value was -352. In the case of `Cc1nc(NC(=O)N2CCC[C@H]2C(N)=O)sc1-c1ccnc(C(C)(C)C(F)(F)F)c1` + Cc1sc2c(c1C)C(c1ccc(Cl)cc1)=N[C@@H](CC(=O)OC(C)(C)C)c1nnc(C)n1-2 [NCGC00250412-19], the “excess over highest single agent” value is reported as -208. `Cc1[nH]c(/C=C2\C(=O)Nc3ccc(S(=O)(=O)N(C)c4cccc(Cl)c4)cc32)c(C)c1C(=O)N1CCN(C)CC1` + Cc1sc2c(c1C)C(c1ccc(Cl)cc1)=N[C@@H](CC(=O)OC(C)(C)C)c1nnc(C)n1-2 [NCGC00250412-19] was tested, and the “excess over highest single agent” value was -183. In the case of `CN(C)Cc1ccc(-c2nc3cccc4c3n2CCNC4=O)cc1` + Cc1sc2c(c1C)C(c1ccc(Cl)cc1)=N[C@@H](CC(=O)OC(C)(C)C)c1nnc(C)n1-2 [NCGC00250412-19], the “excess over highest single agent” value is reported as -101. In the case of `CC1(C)NC(=O)N(c2ccc([N+](=O)[O-])c(C(F)(F)F)c2)C1=O` + Cc1sc2c(c1C)C(c1ccc(Cl)cc1)=N[C@@H](CC(=O)OC(C)(C)C)c1nnc(C)n1-2 [NCGC00250412-19], the “excess over highest single agent” value is reported as -33.6. `CCOc1cc(/C=C2/C(=O)N(c3ccccc3)N=C2C)cc(Cl)c1OCC(=O)OC` + Cc1sc2c(c1C)C(c1ccc(Cl)cc1)=N[C@@H](CC(=O)OC(C)(C)C)c1nnc(C)n1-2 [NCGC00250412-19] was tested, and the “excess over highest single agent” value was 76.6. In the case of `COC(=O)[C@@H]1[C@H]2C[C@H]3c4[nH]c5ccccc5c4CCN3C[C@@H]2CC[C@@H]1O` + Cc1sc2c(c1C)C(c1ccc(Cl)cc1)=N[C@@H](CC(=O)OC(C)(C)C)c1nnc(C)n1-2 [NCGC00250412-19], the “excess over highest single agent” value is reported as -177. With `C[N+](C)([O-])CCNc1ccc(NCC[N+](C)(C)[O-])c2c1C(=O)c1c(O)ccc(O)c1C2=O` + Cc1sc2c(c1C)C(c1ccc(Cl)cc1)=N[C@@H](CC(=O)OC(C)(C)C)c1nnc(C)n1-2 [NCGC00250412-19] the “excess over highest single agent” value was -286. With `CCNC(=O)Nc1ccc(Oc2ncnc(N)c2/C=N/OC)cc1Cl` + Cc1sc2c(c1C)C(c1ccc(Cl)cc1)=N[C@@H](CC(=O)OC(C)(C)C)c1nnc(C)n1-2 [NCGC00250412-19] the “excess over highest single agent” value was -74.4. In the case of `CCCS(=O)(=O)Nc1ccc(F)c(C(=O)c2c[nH]c3ncc(-c4ccc(Cl)cc4)cc23)c1F` + Cc1sc2c(c1C)C(c1ccc(Cl)cc1)=N[C@@H](CC(=O)OC(C)(C)C)c1nnc(C)n1-2 [NCGC00250412-19], the “excess over highest single agent” value is reported as -108. `O=C(Nc1c(Cl)cncc1Cl)c1ccc(OC(F)F)c(OCC2CC2)c1` + Cc1sc2c(c1C)C(c1ccc(Cl)cc1)=N[C@@H](CC(=O)OC(C)(C)C)c1nnc(C)n1-2 [NCGC00250412-19] was tested, and the “excess over highest single agent” value was -238. In the case of `O=S(=O)(O)CCS` + Cc1sc2c(c1C)C(c1ccc(Cl)cc1)=N[C@@H](CC(=O)OC(C)(C)C)c1nnc(C)n1-2 [NCGC00250412-19], the “excess over highest single agent” value is reported as -144. With `CCOc1ccccc1OCCN[C@H](C)Cc1ccc(OC)c(S(N)(=O)=O)c1` + Cc1sc2c(c1C)C(c1ccc(Cl)cc1)=N[C@@H](CC(=O)OC(C)(C)C)c1nnc(C)n1-2 [NCGC00250412-19] the “excess over highest single agent” value was 11.6. `CC(=O)OCC(=O)[C@@]12N=C(C)O[C@@H]1C[C@H]1[C@@H]3CCC4=CC(=O)C=C[C@]4(C)[C@H]3[C@@H](O)C[C@@]12C` + Cc1sc2c(c1C)C(c1ccc(Cl)cc1)=N[C@@H](CC(=O)OC(C)(C)C)c1nnc(C)n1-2 [NCGC00250412-19] was tested, and the “excess over highest single agent” value was -66.1. For `C[C@@H](CN1CC(=O)NC(=O)C1)N1CC(=O)NC(=O)C1` + Cc1sc2c(c1C)C(c1ccc(Cl)cc1)=N[C@@H](CC(=O)OC(C)(C)C)c1nnc(C)n1-2 [NCGC00250412-19], the “excess over highest single agent” value was -70.8. With `Cc1nc2n(c(=O)c1CCN1CCC(c3noc4cc(F)ccc34)CC1)CCCC2` + Cc1sc2c(c1C)C(c1ccc(Cl)cc1)=N[C@@H](CC(=O)OC(C)(C)C)c1nnc(C)n1-2 [NCGC00250412-19] the “excess over highest single agent” value was -63.2. With `C=C1C[C@@H]2[C@H](CC[C@]3(C)C(=O)CC[C@@H]23)[C@@]2(C)C=CC(=O)C=C12` + Cc1sc2c(c1C)C(c1ccc(Cl)cc1)=N[C@@H](CC(=O)OC(C)(C)C)c1nnc(C)n1-2 [NCGC00250412-19] the “excess over highest single agent” value was -73.6. For `CC(=O)N[C@H]1[C@H]([C@H](O)[C@H](O)CO)OC(C(=O)O)=C[C@@H]1NC(=N)N` + Cc1sc2c(c1C)C(c1ccc(Cl)cc1)=N[C@@H](CC(=O)OC(C)(C)C)c1nnc(C)n1-2 [NCGC00250412-19], the “excess over highest single agent” value was -46.3. `Cc1cnc(CNC(=O)c2c(=O)c3ccc(N4CCCN(C)CC4)nc3n3c2sc2ccccc23)cn1` + Cc1sc2c(c1C)C(c1ccc(Cl)cc1)=N[C@@H](CC(=O)OC(C)(C)C)c1nnc(C)n1-2 [NCGC00250412-19] was tested, and the “excess over highest single agent” value was -259. For `N[C@@H](C(=O)N[C@@H]1C(=O)N2C(C(=O)O)=C(Cl)CS[C@H]12)c1ccccc1` + Cc1sc2c(c1C)C(c1ccc(Cl)cc1)=N[C@@H](CC(=O)OC(C)(C)C)c1nnc(C)n1-2 [NCGC00250412-19], the “excess over highest single agent” value was -60.6. In the case of `CC[C@@H]1/C=C(\C)C[C@H](C)C[C@H](OC)[C@H]2O[C@@](O)(C(=O)C(=O)N3CCCC[C@H]3C(=O)O[C@H](/C(C)=C/[C@@H]3CC[C@H](Cl)[C@H](OC)C3)[C@H](C)[C@@H](O)CC1=O)[C@H](C)C[C@@H]2OC` + Cc1sc2c(c1C)C(c1ccc(Cl)cc1)=N[C@@H](CC(=O)OC(C)(C)C)c1nnc(C)n1-2 [NCGC00250412-19], the “excess over highest single agent” value is reported as -132. With `Cc1cc(Nc2nc(N[C@@H](C)c3ncc(F)cn3)ncc2Cl)[nH]n1` + Cc1sc2c(c1C)C(c1ccc(Cl)cc1)=N[C@@H](CC(=O)OC(C)(C)C)c1nnc(C)n1-2 [NCGC00250412-19] the “excess over highest single agent” value was -46. For `COC[C@H](NC(=O)c1cnc(C)s1)C(=O)N[C@@H](COC)C(=O)N[C@@H](Cc1ccccc1)C(=O)[C@@]1(C)CO1` + Cc1sc2c(c1C)C(c1ccc(Cl)cc1)=N[C@@H](CC(=O)OC(C)(C)C)c1nnc(C)n1-2 [NCGC00250412-19], the “excess over highest single agent” value was -227.
